Measured values reported in article doi:10.1101/2019.12.20.884783.
Like-named read-outs stand apart in the source and are kept apart here. These are yes or no findings as the source states them, for the method shown. In cells and extracts the contact can be indirect. Some results given as binding are weak or reduced against the parent protein; the word gives no strength.

Chains of the proteins cited; added tags and fusions are not shown.
UniProt Q5SQX6: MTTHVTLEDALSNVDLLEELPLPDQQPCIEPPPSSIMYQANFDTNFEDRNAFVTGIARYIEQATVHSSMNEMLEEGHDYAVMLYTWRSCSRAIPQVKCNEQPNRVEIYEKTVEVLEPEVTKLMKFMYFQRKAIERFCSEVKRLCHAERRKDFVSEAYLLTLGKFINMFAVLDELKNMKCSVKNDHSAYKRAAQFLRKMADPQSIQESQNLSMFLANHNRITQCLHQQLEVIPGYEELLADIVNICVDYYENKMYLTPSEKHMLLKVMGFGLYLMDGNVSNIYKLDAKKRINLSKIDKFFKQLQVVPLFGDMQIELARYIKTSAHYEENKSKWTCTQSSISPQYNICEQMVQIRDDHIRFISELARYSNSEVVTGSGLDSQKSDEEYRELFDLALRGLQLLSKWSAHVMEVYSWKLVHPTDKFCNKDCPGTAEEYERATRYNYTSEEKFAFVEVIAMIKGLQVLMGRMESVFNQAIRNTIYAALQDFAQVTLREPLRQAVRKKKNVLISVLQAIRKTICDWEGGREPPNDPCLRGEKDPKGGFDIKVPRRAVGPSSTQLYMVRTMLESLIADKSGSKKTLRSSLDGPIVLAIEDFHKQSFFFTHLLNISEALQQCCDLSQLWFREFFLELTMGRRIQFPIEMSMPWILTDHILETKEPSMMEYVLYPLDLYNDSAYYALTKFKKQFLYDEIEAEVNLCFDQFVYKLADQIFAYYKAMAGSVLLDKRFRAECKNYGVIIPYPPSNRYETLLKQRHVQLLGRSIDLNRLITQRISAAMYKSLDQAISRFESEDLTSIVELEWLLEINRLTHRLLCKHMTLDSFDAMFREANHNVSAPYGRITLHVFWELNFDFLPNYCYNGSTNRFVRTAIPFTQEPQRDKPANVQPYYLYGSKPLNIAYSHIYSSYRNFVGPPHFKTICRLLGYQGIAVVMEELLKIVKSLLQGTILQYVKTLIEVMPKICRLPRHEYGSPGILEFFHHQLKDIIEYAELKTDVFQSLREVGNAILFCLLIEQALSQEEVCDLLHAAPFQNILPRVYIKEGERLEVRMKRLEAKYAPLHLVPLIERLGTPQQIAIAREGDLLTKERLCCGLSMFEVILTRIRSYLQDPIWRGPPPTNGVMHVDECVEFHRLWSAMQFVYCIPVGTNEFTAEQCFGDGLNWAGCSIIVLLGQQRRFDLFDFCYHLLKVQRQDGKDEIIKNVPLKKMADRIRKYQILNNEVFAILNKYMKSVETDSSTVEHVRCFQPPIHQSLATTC
UniProt P63073: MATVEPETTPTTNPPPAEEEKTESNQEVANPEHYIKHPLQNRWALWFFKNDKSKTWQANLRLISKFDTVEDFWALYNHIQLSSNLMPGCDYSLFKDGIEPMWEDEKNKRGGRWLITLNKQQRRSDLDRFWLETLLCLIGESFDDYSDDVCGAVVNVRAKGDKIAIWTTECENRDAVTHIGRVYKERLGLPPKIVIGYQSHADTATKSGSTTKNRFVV

How the values were obtained:
[1] = target: cytoplasmic FMRP-interacting protein 2 (CYFIP2), mouse (mouse (endogenous in hippocampus)) (UniProt Q5SQX6); assay: co-IP
[2] = target: cytoplasmic FMRP-interacting protein 2 (CYFIP2), mouse (mouse (endogenous in hippocampus)) (UniProt Q5SQX6); assay: co-IP; remark: listed apart in the source

binding [1]: binds | binding [2]: binds
Substance: eukaryotic initiation factor 4E (eIF4E), mouse (from UniProt P63073 1-217)
